PubChem BioAssay AID652272 – Drosophila RNAi Screening Center, 2013
In all, the deposit lists about 21,000 reagents; this is a random part of those that have a named target and a result. Of all reagents, 503 (2.4%) got an active call. 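Raw plate light values, not normalised; calls rest on replicate z-scores that were not deposited; hits include reporter decreases as well as increases.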 Not stated in the record: the amount of reagent, the time to read-out.

- Test: 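Genome-wide knock-down search for components of Hedgehog signalling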 (primary screen)
- Cells: Drosophila clone 8 (Cl8) cells
- Reagent: long dsRNA against Drosophila genes
- Detection: 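Plate reader light from a firefly reporter under a ptc promoter fragment that responds to Hedgehog, with Renilla light as transfection reference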
- Scale: firefly Hh reporter signal: higher = more ptc reporter light; Renilla reference signal: higher = more Renilla control light
- Hit rule: 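Hit when the z-score averaged over two replicates is under -2 or over +3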
- Meaning of the calls: active = hit: reporter lowered or raised; inactive = not a hit

dco — firefly Hh reporter signal, replicate 1 = 94445; firefly Hh reporter signal, replicate 2 = 68744; Renilla reference signal, replicate 1 = 1857; Renilla reference signal, replicate 2 = 1865; outcome = inactive
wun2 — firefly Hh reporter signal, replicate 1 = 1.60e5; firefly Hh reporter signal, replicate 2 = 64822; Renilla reference signal, replicate 1 = 4256; Renilla reference signal, replicate 2 = 6217; outcome = inactive
CG6414 — firefly Hh reporter signal, replicate 1 = 71568; firefly Hh reporter signal, replicate 2 = 1.75e5; Renilla reference signal, replicate 1 = 2519; Renilla reference signal, replicate 2 = 6003; outcome = inactive
Sgt — firefly Hh reporter signal, replicate 1 = 73513; firefly Hh reporter signal, replicate 2 = 35403; Renilla reference signal, replicate 1 = 3065; Renilla reference signal, replicate 2 = 1165; outcome = inactive
CG10151 — firefly Hh reporter signal, replicate 1 = 69872; firefly Hh reporter signal, replicate 2 = 69488; Renilla reference signal, replicate 1 = 3498; Renilla reference signal, replicate 2 = 3171; outcome = inactive
FMRFaR — firefly Hh reporter signal, replicate 1 = 75488; firefly Hh reporter signal, replicate 2 = 47090; Renilla reference signal, replicate 1 = 2528; Renilla reference signal, replicate 2 = 3136; outcome = inactive
CG6005 — firefly Hh reporter signal, replicate 1 = 1.07e5; firefly Hh reporter signal, replicate 2 = 55125; Renilla reference signal, replicate 1 = 4432; Renilla reference signal, replicate 2 = 2316; outcome = inactive
ktub — firefly Hh reporter signal, replicate 1 = 1.05e5; firefly Hh reporter signal, replicate 2 = 55842; Renilla reference signal, replicate 1 = 4087; Renilla reference signal, replicate 2 = 2265; outcome = inactive
CG32284 — firefly Hh reporter signal, replicate 1 = 1.18e5; firefly Hh reporter signal, replicate 2 = 2.79e5; Renilla reference signal, replicate 1 = 3920; Renilla reference signal, replicate 2 = 11232; outcome = inactive
CG42323 — firefly Hh reporter signal, replicate 1 = 91332; firefly Hh reporter signal, replicate 2 = 3.39e5; Renilla reference signal, replicate 1 = 2310; Renilla reference signal, replicate 2 = 13604; outcome = inactive
slf — firefly Hh reporter signal, replicate 1 = 1.09e5; firefly Hh reporter signal, replicate 2 = 70994; Renilla reference signal, replicate 1 = 1824; Renilla reference signal, replicate 2 = 5880; outcome = inactive

Records listed so far whose gene name starts with S or s:
Sgt — firefly Hh reporter signal, replicate 1 = 73513; firefly Hh reporter signal, replicate 2 = 35403; Renilla reference signal, replicate 1 = 3065; Renilla reference signal, replicate 2 = 1165; outcome = inactive
slf — firefly Hh reporter signal, replicate 1 = 1.09e5; firefly Hh reporter signal, replicate 2 = 70994; Renilla reference signal, replicate 1 = 1824; Renilla reference signal, replicate 2 = 5880; outcome = inactive

The results go on:
CG15638 — firefly Hh reporter signal, replicate 1 = 99750; firefly Hh reporter signal, replicate 2 = 45059; Renilla reference signal, replicate 1 = 2940; Renilla reference signal, replicate 2 = 4290; outcome = inactive
Eig71Ef — firefly Hh reporter signal, replicate 1 = 1.92e5; Renilla reference signal, replicate 1 = 7506; Renilla reference signal, replicate 2 = 5910; outcome = inactive
Su(z)12 — firefly Hh reporter signal, replicate 1 = 93784; firefly Hh reporter signal, replicate 2 = 1.07e5; Renilla reference signal, replicate 1 = 3552; Renilla reference signal, replicate 2 = 3175; outcome = inactive
RNaseZ — firefly Hh reporter signal, replicate 1 = 86829; firefly Hh reporter signal, replicate 2 = 72920; Renilla reference signal, replicate 1 = 2298; Renilla reference signal, replicate 2 = 5153; outcome = inactive
ORMDL — firefly Hh reporter signal, replicate 1 = 1.14e5; firefly Hh reporter signal, replicate 2 = 1.66e5; Renilla reference signal, replicate 1 = 3829; Renilla reference signal, replicate 2 = 4871; outcome = inactive
Taf8 — firefly Hh reporter signal, replicate 1 = 90247; firefly Hh reporter signal, replicate 2 = 58061; Renilla reference signal, replicate 1 = 5538; Renilla reference signal, replicate 2 = 2134; outcome = inactive
Usp1 — firefly Hh reporter signal, replicate 1 = 98371; firefly Hh reporter signal, replicate 2 = 1.33e5; Renilla reference signal, replicate 1 = 2291; Renilla reference signal, replicate 2 = 3564; outcome = inactive
CG10257 — firefly Hh reporter signal, replicate 1 = 76012; firefly Hh reporter signal, replicate 2 = 45288; Renilla reference signal, replicate 1 = 1418; Renilla reference signal, replicate 2 = 3401; outcome = inactive
CG32280 — firefly Hh reporter signal, replicate 1 = 97458; firefly Hh reporter signal, replicate 2 = 2.71e5; Renilla reference signal, replicate 1 = 2777; Renilla reference signal, replicate 2 = 10298; outcome = inactive
CG3349 — firefly Hh reporter signal, replicate 1 = 1.04e5; Renilla reference signal, replicate 1 = 1468; Renilla reference signal, replicate 2 = 2852; outcome = inactive
